Laboratory results from article PMC7819943, “Rice protein-binding microarrays: a tool to detect cis-acting elements near promoter regions in rice”.
The other results are listed elsewhere or left out.

These sequences were tested against T1, OsSMF1 (Oryza sativa, UniProt Q6ZLB0 1-436) (assay: protein-binding microarray (RPBM); PBS, 2% BSA, 51.3 ng/ul salmon testes DNA, 50 uM zinc acetate, 200 nM TF, 25 C, 1 h; high values mean tight binding). Conditions: protein: recombinant; tags: N-terminal polyhistidine and DsRed monomer fusion (pET32a); chain copies: 2; label: CyDye5-dUTP incorporated in the synthesized complementary strand; 3' TTTTT single-stranded linker to array surface; dsDNA, one strand shown.
T1 sequence: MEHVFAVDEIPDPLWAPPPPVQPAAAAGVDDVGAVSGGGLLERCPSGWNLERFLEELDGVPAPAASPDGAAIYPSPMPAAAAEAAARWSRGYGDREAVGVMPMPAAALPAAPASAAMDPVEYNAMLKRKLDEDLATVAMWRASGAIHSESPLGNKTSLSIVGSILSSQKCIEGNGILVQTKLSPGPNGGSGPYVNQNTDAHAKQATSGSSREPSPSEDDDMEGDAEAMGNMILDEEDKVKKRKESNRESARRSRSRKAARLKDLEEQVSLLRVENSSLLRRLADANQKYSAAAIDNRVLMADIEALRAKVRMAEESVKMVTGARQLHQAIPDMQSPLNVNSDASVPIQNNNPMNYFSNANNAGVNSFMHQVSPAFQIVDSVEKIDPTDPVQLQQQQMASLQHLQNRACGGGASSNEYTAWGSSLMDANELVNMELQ
Method in brief: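 The binding signal is fluorescence intensity per array feature (arbitrary units). Readings came from an Axon 4000B scanner after a washed, 2% BSA-blocked, double-stranded custom Agilent array had been incubated for 1 h at 25 °C with 200 nM protein and 50 µM zinc acetate. The protein was a Ni–NTA-purified transcription factor fused N-terminally to polyhistidine and DsRed, expressed in E. coli BL21-CodonPlus.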

| Sequence | binding signal |
| --- | --- |
| AAATCCGCCCTCGCCTCGCCCCGATCGATCCCCTCGATTCCGGAGTCACCTAGTGCAG | 3810 fluorescence intensity (a.u.) |
| ACGGATCTATAGAGTAATGACCGGTGTCAGGCGACACCGACGGAGTCACCTAGTGCAG | 3750 fluorescence intensity (a.u.) |
| TTGAGCTAGCCTGACTGTCAGTAACAGAACCAGTGATCTGCGGAGTCACCTAGTGCAG | 3520 fluorescence intensity (a.u.) |
| CTCGCGGCAACCATGCATCAAATTTTAAATGCCCCAATATCGGAGTCACCTAGTGCAG | 9450 fluorescence intensity (a.u.) |
| CCTCGAAAGGCCCATCACGCGTCTTCCTTACGTGGGCCGTCGGAGTCACCTAGTGCAG | 4260 fluorescence intensity (a.u.) |
| ATGTTATGTGTAGGTTTTGCTTAGTCAGTCACACAGATTTCGGAGTCACCTAGTGCAG | 6630 fluorescence intensity (a.u.) |
| CGGTCTAGACTGGAGTTGGCACGAAATGCGGTGCTTCCTGCGGAGTCACCTAGTGCAG | 3330 fluorescence intensity (a.u.) |
| AGAAGGGATAAAGAGAGGATGACATGTGGGACCCACATGTCGGAGTCACCTAGTGCAG | 4130 fluorescence intensity (a.u.) |
| ATATGAAGTGACTAATATGCACTCTTGGCATAGTTAATACCGGAGTCACCTAGTGCAG | 3280 fluorescence intensity (a.u.) |
| GCCCTGATCATACAGAGTATGACGTTATAAGAATGCAGTGCGGAGTCACCTAGTGCAG | 4940 fluorescence intensity (a.u.) |
| CTCCATGCGCTCACGTTCCATCGCGTGGTCCACGCCCTTCCGGAGTCACCTAGTGCAG | 3980 fluorescence intensity (a.u.) |
| GAGTAATTGTTTTACTTTGTGTAACGTCATGGGACCTAGACGGAGTCACCTAGTGCAG | 3330 fluorescence intensity (a.u.) |
| GTGGGTGGAGGAAGCGGATAGGGAGAGGGGTGTGGGGCGGCGGAGTCACCTAGTGCAG | 5720 fluorescence intensity (a.u.) |
| ACCAAACAGCTCCTAAGCTTATATAATGGTGTACTACAAGCGGAGTCACCTAGTGCAG | 3310 fluorescence intensity (a.u.) |
| GATCCGCCCCAGGTAGTACTGTAGTAGTGTGCATAGGGCACGGAGTCACCTAGTGCAG | 3260 fluorescence intensity (a.u.) |
| GCCACGCCTCCTATATCCACGCTGCCCAGCGGCGCCCACCCGGAGTCACCTAGTGCAG | 3190 fluorescence intensity (a.u.) |
| AAACGCCGCGCTGCGCGGCCTACGAGGGTGTCCGTGGCGCCGGAGTCACCTAGTGCAG | 3360 fluorescence intensity (a.u.) |
| GGTGGGATCCTCTGCGGCCTCGTATTTCTATCTGCTTAACCGGAGTCACCTAGTGCAG | 3230 fluorescence intensity (a.u.) |
| GCGCAGATGTGTGCGTGGCATGGAATCCCCGATGTGGATGCGGAGTCACCTAGTGCAG | 4000 fluorescence intensity (a.u.) |
| TGTCCACCACCCCGAAGCGTGACGTGACACGCACCATCCACGGAGTCACCTAGTGCAG | 3700 fluorescence intensity (a.u.) |
| AGAAGGGGAAAAGAAGGATAGAGGGACTGACACGTGGGTCCGGAGTCACCTAGTGCAG | 8780 fluorescence intensity (a.u.) |

2 entries picked at random from those above:

| Sequence | binding signal |
| --- | --- |
| GCCACGCCTCCTATATCCACGCTGCCCAGCGGCGCCCACCCGGAGTCACCTAGTGCAG | 3190 fluorescence intensity (a.u.) |
| AAACGCCGCGCTGCGCGGCCTACGAGGGTGTCCGTGGCGCCGGAGTCACCTAGTGCAG | 3360 fluorescence intensity (a.u.) |

(further entries)

| Sequence | binding signal |
| --- | --- |
| TTCACCTTGCTCCTCTCTCTCTCTCTCTCTCCTTAATTCTCGGAGTCACCTAGTGCAG | 5280 fluorescence intensity (a.u.) |
| ATCCGTAACTTTGGTCACATTGCCACGTAAGATAACATTTCGGAGTCACCTAGTGCAG | 16500 fluorescence intensity (a.u.) |
| CTACACCGCCACCTCCCCACGCTGCTCTGCTTCTCTTCTTCGGAGTCACCTAGTGCAG | 3880 fluorescence intensity (a.u.) |
| GAGGCGGCGGGAGGGAAGTCGCACGTCGTCGTCGGGGTCGCGGAGTCACCTAGTGCAG | 3700 fluorescence intensity (a.u.) |
| GGTTTGTTTGTCGTTCATGTGACGAGCGCATCCGTTTTCCCGGAGTCACCTAGTGCAG | 3170 fluorescence intensity (a.u.) |
| CTACTGCTGTTGTGAAATTGGCAATAGTTCAATCACACTACGGAGTCACCTAGTGCAG | 3480 fluorescence intensity (a.u.) |
| TTCAGAAGCTGACATAAGTTTGGGGACACATAGTCCTCGGCGGAGTCACCTAGTGCAG | 3820 fluorescence intensity (a.u.) |
| TGGTCGACGTGTTTGGCCAAGAGCGCTACCCTGCACTCCCCGGAGTCACCTAGTGCAG | 3490 fluorescence intensity (a.u.) |
| CTTACTCTCCCATTGACTTTCAATCCCAATGTAACCAGCTCGGAGTCACCTAGTGCAG | 3180 fluorescence intensity (a.u.) |
| TGTAAGCTTATGTGTCATCTTTCTTTGTTTGTGAAGAACCCGGAGTCACCTAGTGCAG | 7880 fluorescence intensity (a.u.) |
| AATGCTCTCTTACGGTGGATGACTTGGATGGGCTGATCAACGGAGTCACCTAGTGCAG | 3260 fluorescence intensity (a.u.) |
| GTTGGGCACATACGTGGCCACCGATGGTTGAGCCGTCGAACGGAGTCACCTAGTGCAG | 3910 fluorescence intensity (a.u.) |
| ATGTTGGGCCAGGCTCGAGCTCCTCCTCCTCCGCGTCGTCCGGAGTCACCTAGTGCAG | 23500 fluorescence intensity (a.u.) |
| CTCTATGGCCGCAACCCATCGCCGCCATAGACGTACGGACCGGAGTCACCTAGTGCAG | 6290 fluorescence intensity (a.u.) |
| AGCCACATTCCTCAAATCATGGTTAGAACCAAAACAACCACGGAGTCACCTAGTGCAG | 5700 fluorescence intensity (a.u.) |
| AAAATCGACATATCGCGCATGATGCAACCGTGTCTCACTGCGGAGTCACCTAGTGCAG | 3500 fluorescence intensity (a.u.) |
| TCCAGTTTGAGAGGAGAATCGATGTGGCAAATACGCGGAACGGAGTCACCTAGTGCAG | 5120 fluorescence intensity (a.u.) |
| TGGGTGGTGGTGGTGGTTCATCTCGCCGCGGGCGCGCACACGGAGTCACCTAGTGCAG | 3210 fluorescence intensity (a.u.) |
| TAGGCATAGGCCATAGATCCTAGTGCCAACACGACAGGCACGGAGTCACCTAGTGCAG | 4820 fluorescence intensity (a.u.) |
| CCAGTAATCCTCCTCCTGCTGCCTCAGCTCCTCTTCTGTACGGAGTCACCTAGTGCAG | 50800 fluorescence intensity (a.u.) |
| TGGTGTGCGTGAGTGTGCAACTCTCAATATTTGTTGCCCGCGGAGTCACCTAGTGCAG | 3820 fluorescence intensity (a.u.) |
